In patent US20050250717, “Chromatin remodeling protein as a marker expressed by stromal progenitor cells” (Ramot AT Tel Aviv University Ltd., published 2005):

Target: T1, ChroM1 DNA-binding domain recombinant protein (rP, residues 2333-2480) (Homo sapiens) (UniProt Q3L8U1)
T1 sequence: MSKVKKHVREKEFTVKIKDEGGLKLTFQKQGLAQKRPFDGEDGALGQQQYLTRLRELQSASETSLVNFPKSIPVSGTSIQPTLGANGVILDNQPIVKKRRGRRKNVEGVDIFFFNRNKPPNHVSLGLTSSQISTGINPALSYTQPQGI
Test: EMSA
Details: binding reduced by distamycin A; purified recombinant protein

Does “CGCATGATATACTTCACCTATTTTTTGTCTCCTTAATATGTATATATATATATATATATATATATATATATATATATATATATATATATATACACATATATGTGTGTGTGTATGTGCGTGTGCATGTTTAACTTTTAATTCAGTTAAAAACTTTTTTCTATTTGTTTTTCATCTGGATATTTGATTCTGCATATCCTAGCCCAA (double strand) [ERalpha distal promoter PCR fragment (204 bp)]” bind?
Result: binds

Protein sequences can lack the tags named with them.
